Results reported in paper PMC3784435.
No constants are given. Whether binding was seen depends on the method and setting. Binding can be weak; no strength is given.

Biological target: CARP/ANIA-4
Experiment: two-hybrid; yeast two-hybrid screen (Hybrigenics): bait CARP/ANIA-4 in pB27 (N-LexA-CARP-C) against the Mouse Adult Brain_RP1 ULTImate Y2H library; 79.3 million possible interactions screened; hits classed by Global PBS

binding	Binder
binds	Ap1m1 (domain or fragment, UniProt P35585 118-423) MDFGYPQTTDSKILQEYITQEGHKLETGAPRPPATVTNAVSWRSEGIKYRKNEVFLDVIEAVNLLVSANGNVLRSEIVGSIKMRVFLSGMPELRLGLNDKVLFDNTGRGKSKSVELEDVKFHQCVRLSRFENDRTISFIPPDGEFELMSYRLNTHVKPLIWIESVIEKHSHSRIEYMVKAKSQFKRRSTANNVEIHIPVPNDADSPKFKTTVGSVKWVPENSEIVWSVKSFPGGKEYLMRAHFGLPSVEAEDKEGKPPISVKFEIPYFTTSGIQVRYLKIIEKSGYQALPWVRYITQNGDYQLRTQ
binds	Gnl3l (domain or fragment, UniProt Q6PGG6 8-268) NKKPGKGSKGCKKPARQNGKKVTSRPSSAPQIVHGNDHASREAELKKKRVEEMREKQQVAREQERQRHRTMESYCQDVLKRQQEFEQKEEVLQELNMFPQLDDEATRKAYYKEFRKVVEYSDVILEVLDARDPLGCRCFQMEETVLRAEGNKKLVLVLNKIDLVPKEIVEKWLEYLLNELPTVAFKASTQHHQVKNLTRCKVPVDQASESLLKSRACFGAENLMRVLGNYCRLGEVRGHIRVGVVGLPNVGKSSLINSLKR
